Results as given in paper PMC4414162.
No constants are given. Whether binding was seen depends on the method and setting. In cells and extracts the contact can be indirect. Some results given as binding are weak or reduced against the parent protein; the word gives no strength.

Amino acid sequences for entries named in this document (tags omitted).
UniProt P53667: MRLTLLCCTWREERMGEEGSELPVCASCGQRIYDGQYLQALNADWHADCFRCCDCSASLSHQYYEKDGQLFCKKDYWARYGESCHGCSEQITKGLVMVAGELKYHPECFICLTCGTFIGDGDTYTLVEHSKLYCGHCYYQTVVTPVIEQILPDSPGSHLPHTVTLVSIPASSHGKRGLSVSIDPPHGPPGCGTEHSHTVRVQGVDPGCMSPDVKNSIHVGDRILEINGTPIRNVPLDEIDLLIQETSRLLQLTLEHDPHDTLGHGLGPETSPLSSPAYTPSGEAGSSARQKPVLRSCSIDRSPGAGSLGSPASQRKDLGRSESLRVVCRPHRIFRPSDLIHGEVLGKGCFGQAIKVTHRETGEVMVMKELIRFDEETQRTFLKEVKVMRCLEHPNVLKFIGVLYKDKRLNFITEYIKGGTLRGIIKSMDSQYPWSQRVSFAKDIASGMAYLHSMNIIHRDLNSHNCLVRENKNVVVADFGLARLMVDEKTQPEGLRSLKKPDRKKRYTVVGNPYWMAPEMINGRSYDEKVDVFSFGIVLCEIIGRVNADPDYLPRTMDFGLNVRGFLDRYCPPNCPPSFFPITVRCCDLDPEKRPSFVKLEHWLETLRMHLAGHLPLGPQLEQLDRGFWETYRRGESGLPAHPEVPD
UniProt Q9NQU5: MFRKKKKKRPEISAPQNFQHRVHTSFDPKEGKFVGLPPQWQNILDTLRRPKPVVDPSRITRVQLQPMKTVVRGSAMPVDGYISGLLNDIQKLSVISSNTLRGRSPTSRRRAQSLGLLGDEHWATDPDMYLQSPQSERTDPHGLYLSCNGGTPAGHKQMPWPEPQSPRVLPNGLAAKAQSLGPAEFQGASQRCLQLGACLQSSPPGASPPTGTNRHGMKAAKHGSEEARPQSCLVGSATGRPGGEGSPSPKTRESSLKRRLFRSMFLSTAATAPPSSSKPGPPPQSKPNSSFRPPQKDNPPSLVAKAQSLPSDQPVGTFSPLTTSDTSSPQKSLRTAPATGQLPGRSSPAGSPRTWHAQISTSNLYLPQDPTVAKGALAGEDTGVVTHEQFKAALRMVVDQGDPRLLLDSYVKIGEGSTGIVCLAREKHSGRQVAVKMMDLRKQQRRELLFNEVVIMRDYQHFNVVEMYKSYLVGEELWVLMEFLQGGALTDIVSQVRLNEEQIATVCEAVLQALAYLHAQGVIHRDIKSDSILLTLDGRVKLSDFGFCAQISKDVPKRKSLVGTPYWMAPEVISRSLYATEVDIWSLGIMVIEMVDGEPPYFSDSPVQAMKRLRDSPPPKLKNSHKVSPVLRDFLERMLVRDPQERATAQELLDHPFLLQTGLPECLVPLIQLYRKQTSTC
UniProt P46940: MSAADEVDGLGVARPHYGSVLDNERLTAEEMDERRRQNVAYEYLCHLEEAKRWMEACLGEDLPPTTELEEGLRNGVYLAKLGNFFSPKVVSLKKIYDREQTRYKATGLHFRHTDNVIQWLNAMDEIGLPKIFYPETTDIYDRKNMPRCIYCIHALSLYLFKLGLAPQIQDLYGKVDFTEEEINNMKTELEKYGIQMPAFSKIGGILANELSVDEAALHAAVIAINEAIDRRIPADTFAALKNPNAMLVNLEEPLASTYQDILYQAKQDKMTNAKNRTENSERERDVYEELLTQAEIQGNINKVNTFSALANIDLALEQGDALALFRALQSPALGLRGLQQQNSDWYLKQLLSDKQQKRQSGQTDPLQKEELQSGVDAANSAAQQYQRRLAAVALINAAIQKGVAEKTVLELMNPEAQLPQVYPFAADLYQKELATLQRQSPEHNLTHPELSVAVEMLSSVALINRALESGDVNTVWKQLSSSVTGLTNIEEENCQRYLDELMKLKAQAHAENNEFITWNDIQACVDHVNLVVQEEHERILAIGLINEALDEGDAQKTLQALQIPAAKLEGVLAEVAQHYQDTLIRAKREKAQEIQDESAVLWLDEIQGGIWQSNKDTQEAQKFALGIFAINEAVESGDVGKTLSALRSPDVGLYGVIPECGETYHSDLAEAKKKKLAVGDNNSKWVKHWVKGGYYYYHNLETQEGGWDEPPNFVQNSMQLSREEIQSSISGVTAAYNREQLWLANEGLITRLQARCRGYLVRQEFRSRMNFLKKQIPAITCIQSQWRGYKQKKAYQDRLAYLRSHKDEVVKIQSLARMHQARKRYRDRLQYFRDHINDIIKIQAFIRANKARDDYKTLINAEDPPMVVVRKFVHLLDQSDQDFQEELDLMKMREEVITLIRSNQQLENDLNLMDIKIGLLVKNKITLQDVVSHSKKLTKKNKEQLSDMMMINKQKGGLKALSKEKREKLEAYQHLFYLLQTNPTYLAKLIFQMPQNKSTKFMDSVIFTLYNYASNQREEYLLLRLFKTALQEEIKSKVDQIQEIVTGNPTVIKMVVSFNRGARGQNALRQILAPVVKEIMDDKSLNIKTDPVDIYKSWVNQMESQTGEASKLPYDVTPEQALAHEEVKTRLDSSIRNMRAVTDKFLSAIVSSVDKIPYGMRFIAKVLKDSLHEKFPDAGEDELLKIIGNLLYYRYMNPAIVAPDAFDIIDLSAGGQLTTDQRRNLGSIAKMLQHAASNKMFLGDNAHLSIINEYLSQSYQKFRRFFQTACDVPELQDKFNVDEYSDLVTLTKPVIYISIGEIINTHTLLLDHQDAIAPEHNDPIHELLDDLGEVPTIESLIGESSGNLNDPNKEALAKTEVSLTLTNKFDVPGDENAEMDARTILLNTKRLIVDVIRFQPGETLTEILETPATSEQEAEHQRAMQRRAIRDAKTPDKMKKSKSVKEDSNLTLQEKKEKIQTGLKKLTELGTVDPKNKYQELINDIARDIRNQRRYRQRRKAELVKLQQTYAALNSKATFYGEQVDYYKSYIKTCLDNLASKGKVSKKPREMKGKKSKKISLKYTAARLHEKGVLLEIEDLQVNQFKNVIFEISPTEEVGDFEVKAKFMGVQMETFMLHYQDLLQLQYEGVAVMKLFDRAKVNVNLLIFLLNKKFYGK

What was measured:
[1] = target: LIM kinase 1 (LIMK1) (human (endogenous in PC-3 and DU145)) (UniProt P53667); test: co-IP; co-IP in prostate cancer cells, told only in the discussion, no figure; cell line and bait not stated
[2] = target: p21-activated kinase 6 (PAK6) (human (endogenous in PC-3 and DU145)) (UniProt Q9NQU5); test: co-IP; endogenous proteins in PC-3 (and DU145) cell lysates; lysis buffer 1% Triton X-100, 150 mM NaCl, 20 mM Tris-Cl pH 7.4, 1 mM EDTA, 1 mM EGTA; IP with 4 ug PAK6 or LIMK1 antibody and protein G plus/protein A-agarose, 16 h at 4°C; Western blot with anti-LIMK1 or anti-PAK6; control IgG
[3] = target: LIM kinase 1 (LIMK1) (human (endogenous in PC-3 and DU145)) (UniProt P53667); test: as above
[4] = target: LIM kinase 1 (LIMK1) (human (endogenous in PC-3 and DU145)), P53667; test: co-IP; co-IP in prostate cancer cells, told only in the discussion, no figure; cell line and bait not stated; conditions: remark: other sources report otherwise

Molecule: IQGAP1 (from UniProt P46940 1-1657)
- binding [1]: no binding

Molecule: LIM kinase 1 (LIMK1) (from UniProt P53667 1-647)
- binding [2]: binds

Molecule: p21-activated kinase 6 (PAK6) (from UniProt Q9NQU5 1-681)
- binding [3]: binds

B1: beta-catenin, P35222 1-781 (protein)
chain: MATQADLMELDMAMEPDRKAAVSHWQQQSYLDSGIHSGATTTAPSLSGKGNPEEEDVDTSQVLYEWEQGFSQSFTQEQVADIDGQYAMTRAQRVRAAMFPETLDEGMQIPSTQFDAAHPTNVQRLAEPSQMLKHAVVNLINYQDDAELATRAIPELTKLLNDEDQVVVNKAAVMVHQLSKKEASRHAIMRSPQMVSAIVRTMQNTNDVETARCTAGTLHNLSHHREGLLAIFKSGGIPALVKMLGSPVDSVLFYAITTLHNLLLHQEGAKMAVRLAGGLQKMVALLNKTNVKFLAITTDCLQILAYGNQESKLIILASGGPQALVNIMRTYTYEKLLWTTSRVLKVLSVCSSNKPAIVEAGGMQALGLHLTDPSQRLVQNCLWTLRNLSDAATKQEGMEGLLGTLVQLLGSDDINVVTCAAGILSNLTCNNYKNKMMVCQVGGIEALVRTVLRAGDREDITEPAICALRHLTSRHQEAEMAQNAVRLHYGLPVVVKLLHPPSHWPLIKATVGLIRNLALCPANHAPLREQGAIPRLVQLLVRAHQDTQRRTSMGGTQQQFVEGVRMEEIVEGCTGALHILARDVHNRIVIRGLNTIPLFVQLLYSPIENIQRVAAGVLCELAQDKEAAEAIEAEGATAPLTELLHSRNEGVATYAAAVLFRMSEDKPQDYKKRLSVELTSSLFRTEPMAWNETADLGLDIGAQGEPLGYRQDDPSYRSFHSGGYGQDALGMDPMMEHEMGGHHPGADYPVDGLPDLGHAQDLMDGLPPGDSNQLAWFDTDL
- binding [4]: no binding
